Assay results published in patent US20090017010A1, “NOVEL ARTEMIS/DNA-DEPENDENT PROTEIN KINASE COMPLEX AND METHODS OF USE THEREOF” (University of Southern California, priority 2002, published 2009).
At least one compound was matched to its structure with a doubt left.

Chains of the proteins cited; added tags and fusions are not shown.
UniProt P78527, whole entry: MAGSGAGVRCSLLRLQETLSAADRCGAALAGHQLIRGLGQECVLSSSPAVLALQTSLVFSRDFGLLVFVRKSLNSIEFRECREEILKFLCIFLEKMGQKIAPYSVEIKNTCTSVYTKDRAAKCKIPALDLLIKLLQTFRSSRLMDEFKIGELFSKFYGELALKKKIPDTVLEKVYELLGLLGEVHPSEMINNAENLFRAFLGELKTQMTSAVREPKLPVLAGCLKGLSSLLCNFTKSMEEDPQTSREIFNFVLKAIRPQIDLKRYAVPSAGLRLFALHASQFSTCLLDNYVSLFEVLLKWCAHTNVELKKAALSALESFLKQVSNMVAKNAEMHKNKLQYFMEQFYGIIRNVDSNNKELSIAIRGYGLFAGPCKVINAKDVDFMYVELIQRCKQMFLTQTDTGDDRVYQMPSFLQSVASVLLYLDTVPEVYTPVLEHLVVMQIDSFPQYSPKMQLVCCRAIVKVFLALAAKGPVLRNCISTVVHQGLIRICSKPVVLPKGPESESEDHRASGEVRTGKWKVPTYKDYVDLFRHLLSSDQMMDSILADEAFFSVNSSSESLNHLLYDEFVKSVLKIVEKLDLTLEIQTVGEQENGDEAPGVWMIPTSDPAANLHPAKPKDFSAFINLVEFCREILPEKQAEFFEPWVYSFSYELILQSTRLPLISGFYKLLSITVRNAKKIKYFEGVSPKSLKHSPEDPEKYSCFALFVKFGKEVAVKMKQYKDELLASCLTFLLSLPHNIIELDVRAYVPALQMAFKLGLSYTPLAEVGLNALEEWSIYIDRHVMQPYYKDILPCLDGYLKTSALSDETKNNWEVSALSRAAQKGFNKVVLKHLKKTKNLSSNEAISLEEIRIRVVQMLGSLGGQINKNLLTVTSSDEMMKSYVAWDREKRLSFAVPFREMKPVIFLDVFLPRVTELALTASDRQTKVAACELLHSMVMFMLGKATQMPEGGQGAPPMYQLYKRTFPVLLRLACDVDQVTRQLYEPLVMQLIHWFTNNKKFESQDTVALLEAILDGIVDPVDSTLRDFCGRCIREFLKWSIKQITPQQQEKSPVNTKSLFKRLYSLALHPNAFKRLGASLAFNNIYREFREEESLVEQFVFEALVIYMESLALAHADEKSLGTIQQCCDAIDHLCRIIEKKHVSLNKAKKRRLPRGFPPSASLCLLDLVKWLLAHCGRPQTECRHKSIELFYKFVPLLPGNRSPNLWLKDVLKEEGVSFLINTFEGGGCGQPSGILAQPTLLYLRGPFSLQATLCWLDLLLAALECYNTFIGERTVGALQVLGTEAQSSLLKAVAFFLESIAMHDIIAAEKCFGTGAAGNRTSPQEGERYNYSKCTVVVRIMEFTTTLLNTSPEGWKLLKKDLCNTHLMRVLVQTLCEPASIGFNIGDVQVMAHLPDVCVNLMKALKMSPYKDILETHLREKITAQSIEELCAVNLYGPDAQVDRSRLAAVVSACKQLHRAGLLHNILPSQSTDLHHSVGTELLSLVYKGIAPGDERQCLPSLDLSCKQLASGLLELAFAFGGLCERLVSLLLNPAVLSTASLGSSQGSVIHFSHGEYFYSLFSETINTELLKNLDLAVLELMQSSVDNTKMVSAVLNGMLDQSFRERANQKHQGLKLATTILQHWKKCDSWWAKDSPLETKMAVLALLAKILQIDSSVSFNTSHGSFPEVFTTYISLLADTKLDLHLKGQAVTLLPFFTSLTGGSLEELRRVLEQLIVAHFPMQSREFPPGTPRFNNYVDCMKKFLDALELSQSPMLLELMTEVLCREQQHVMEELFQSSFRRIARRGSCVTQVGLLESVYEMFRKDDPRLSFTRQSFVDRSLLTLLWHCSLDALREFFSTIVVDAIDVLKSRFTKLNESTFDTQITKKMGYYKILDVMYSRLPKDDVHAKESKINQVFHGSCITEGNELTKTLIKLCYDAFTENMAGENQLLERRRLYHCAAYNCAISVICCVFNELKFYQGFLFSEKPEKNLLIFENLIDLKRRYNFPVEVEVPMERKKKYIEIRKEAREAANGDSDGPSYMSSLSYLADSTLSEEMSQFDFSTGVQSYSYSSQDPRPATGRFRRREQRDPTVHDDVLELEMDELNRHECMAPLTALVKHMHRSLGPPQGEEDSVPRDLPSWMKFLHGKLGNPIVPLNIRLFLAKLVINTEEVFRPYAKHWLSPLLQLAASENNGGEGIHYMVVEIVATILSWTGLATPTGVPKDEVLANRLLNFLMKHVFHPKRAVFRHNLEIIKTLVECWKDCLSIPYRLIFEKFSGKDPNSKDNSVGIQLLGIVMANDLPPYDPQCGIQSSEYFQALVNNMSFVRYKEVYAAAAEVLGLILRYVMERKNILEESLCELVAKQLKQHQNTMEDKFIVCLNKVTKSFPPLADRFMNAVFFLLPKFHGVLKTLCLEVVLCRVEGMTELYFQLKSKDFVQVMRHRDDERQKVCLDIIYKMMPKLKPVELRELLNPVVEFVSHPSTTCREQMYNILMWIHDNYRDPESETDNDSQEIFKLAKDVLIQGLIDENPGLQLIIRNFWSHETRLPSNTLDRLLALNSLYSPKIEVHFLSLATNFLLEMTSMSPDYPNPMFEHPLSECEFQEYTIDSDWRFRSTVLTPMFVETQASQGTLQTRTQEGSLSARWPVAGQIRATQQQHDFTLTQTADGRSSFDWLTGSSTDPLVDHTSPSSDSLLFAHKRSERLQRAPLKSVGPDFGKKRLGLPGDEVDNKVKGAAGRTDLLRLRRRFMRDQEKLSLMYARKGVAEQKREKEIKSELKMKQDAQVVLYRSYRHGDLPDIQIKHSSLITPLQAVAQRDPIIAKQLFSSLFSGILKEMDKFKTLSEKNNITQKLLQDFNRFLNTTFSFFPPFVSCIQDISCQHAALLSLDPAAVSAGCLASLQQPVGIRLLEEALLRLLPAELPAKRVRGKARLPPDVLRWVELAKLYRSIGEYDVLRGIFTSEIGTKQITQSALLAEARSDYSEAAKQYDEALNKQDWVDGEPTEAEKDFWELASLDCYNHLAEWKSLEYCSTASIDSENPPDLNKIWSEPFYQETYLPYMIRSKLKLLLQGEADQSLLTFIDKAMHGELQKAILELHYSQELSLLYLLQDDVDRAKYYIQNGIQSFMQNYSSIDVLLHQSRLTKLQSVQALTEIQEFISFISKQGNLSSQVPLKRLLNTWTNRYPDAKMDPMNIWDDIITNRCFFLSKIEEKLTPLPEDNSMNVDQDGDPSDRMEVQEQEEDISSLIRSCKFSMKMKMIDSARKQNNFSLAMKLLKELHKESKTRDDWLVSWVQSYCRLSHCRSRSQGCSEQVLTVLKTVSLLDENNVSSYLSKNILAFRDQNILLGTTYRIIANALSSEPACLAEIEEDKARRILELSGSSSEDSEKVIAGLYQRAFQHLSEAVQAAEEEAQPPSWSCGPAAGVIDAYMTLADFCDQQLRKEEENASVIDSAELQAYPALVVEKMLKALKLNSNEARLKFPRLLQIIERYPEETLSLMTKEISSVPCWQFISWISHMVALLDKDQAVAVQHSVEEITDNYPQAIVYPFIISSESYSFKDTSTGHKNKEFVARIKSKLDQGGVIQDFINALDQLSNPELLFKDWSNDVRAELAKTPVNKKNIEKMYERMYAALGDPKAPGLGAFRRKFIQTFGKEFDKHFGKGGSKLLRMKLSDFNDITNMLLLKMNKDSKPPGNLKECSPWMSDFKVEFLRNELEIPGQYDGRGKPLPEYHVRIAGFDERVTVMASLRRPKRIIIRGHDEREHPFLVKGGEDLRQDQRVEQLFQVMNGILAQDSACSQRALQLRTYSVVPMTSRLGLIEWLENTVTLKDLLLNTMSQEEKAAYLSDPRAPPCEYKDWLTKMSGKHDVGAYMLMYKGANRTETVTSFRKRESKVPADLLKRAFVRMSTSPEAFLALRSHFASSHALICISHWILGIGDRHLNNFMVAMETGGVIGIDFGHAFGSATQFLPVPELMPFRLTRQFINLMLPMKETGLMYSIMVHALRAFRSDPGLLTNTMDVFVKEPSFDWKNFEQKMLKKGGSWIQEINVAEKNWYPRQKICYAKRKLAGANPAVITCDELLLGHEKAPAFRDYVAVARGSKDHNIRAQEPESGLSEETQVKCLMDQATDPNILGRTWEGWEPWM

Molecular target: T1, Artemis:DNA-PKcs complex (Homo sapiens, UniProt P78527)
T1 construct: Native DNA-PKcs was purified as described (Chan et al., 1996) except that HeLa cells were used as the source; made in house; host or cells: Artemis-myc-His: transfected 293T cells (Ni-NTA, then anti-myc immunobeads); DNA-PKcs: endogenous protein purified from HeLa cells
Assay: In vitro nuclease assay: effect of a DNA-PKcs inhibitor and of ATP analogs on hairpin opening
Format: biochemical
Conditions: DNA-PK treated with LY294002 at 50 μM and 100 mM before substrate; DFL16.1 hairpin; FIG. 5A lanes 7, 8
Description: Nuclease assays without RAGs were carried out in a total volume of 10 μL with a buffer composition of 25 mM Tris, pH 8.0, 10-50 mM NaCl or KCl, 10 mM MgCl2, 1 mM DTT, and 50 ng/μL of BSA unless otherwise specified. To the buffer mixture, Artemis was added to 2.75 pmol, and DNA-PKcs and Ku were added to 1.25 pmol each. 0.25 mM of ATP (or ADP, ATP-y-S, AMP-PNP) and […] of 35 bp DNA were included where DNA-PKcs was used. Reactions were incubated at 37° C. for 30 minutes. In reactions including DNA-PKcs inhibitors, reaction mixtures without the substrate were incubated on ice for 15 minutes before the addition of the substrate and the subsequent incubation at 37° C. In FIG. 7, pre-phosphorylation of Artemis-myc-His immunobeads was carried out under DNA-PK kinase assay conditions. After washing the treated immunobeads with buffer F for three times and the nuclease assay buffer for two times, the beads were used for the nuclease reactions. […] Data was analyzed by ImageQuant software (v5.0). […]

O=c1cc(N2CCOCC2)oc2c(-c3ccccc3)cccc12 [LY294002]
effect on the DNA-PKcs stimulation of hairpin opening by Artemis: reduced the stimulation
